According to article PMC7819943, “Rice protein-binding microarrays: a tool to detect cis-acting elements near promoter regions in rice”:
This is one part of the list.

The chains behind the UniProt entries cited, without tags or fusion partners.
UniProt Q0JBA9, entry or part of it: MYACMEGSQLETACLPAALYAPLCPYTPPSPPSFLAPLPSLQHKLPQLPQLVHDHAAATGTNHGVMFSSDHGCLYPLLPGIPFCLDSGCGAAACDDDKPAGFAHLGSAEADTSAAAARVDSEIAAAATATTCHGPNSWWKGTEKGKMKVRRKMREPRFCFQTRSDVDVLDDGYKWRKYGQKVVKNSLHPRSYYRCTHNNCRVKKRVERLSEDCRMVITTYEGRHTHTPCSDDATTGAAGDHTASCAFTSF

Target: OsWRKY34 (Oryza sativa, UniProt Q0JBA9 1-250)
Experiment: protein-binding microarray (RPBM); PBS, 2% BSA, 51.3 ng/ul salmon testes DNA, 50 uM zinc acetate, 200 nM TF, 25 C, 1 h; high values mean tight binding
Settings: protein: recombinant; tags: N-terminal polyhistidine and DsRed monomer fusion (pET32a); label: CyDye5-dUTP incorporated in the synthesized complementary strand; 3' TTTTT single-stranded linker to array surface; dsDNA, one strand shown
Outline: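 Binding signal is reported as fluorescence intensity per feature (arbitrary units) from an Axon 4000B scanner. Incubation used 200 nM of each Ni–NTA-purified, N-terminally polyhistidine- and DsRed-fused transcription factor from E. coli BL21-CodonPlus on a double-stranded custom Agilent array for 1 h at 25 °C, with 50 µM zinc acetate in the buffer, followed by washing.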

Row | Sequence | binding signal
1 | CCATCACCAAACCCCGAATTTACTACGACATTTTCCATCACGGAGTCACCTAGTGCAG | 9300 fluorescence intensity (a.u.)
2 | GTGGAAACCGCTAGCATAAATATTACGAGGGGTGGGAGGCCGGAGTCACCTAGTGCAG | 8850 fluorescence intensity (a.u.)
3 | CGACGCTTCCCATATAATTTTGGCCCGGAACTCCAATTCCCGGAGTCACCTAGTGCAG | 8710 fluorescence intensity (a.u.)
4 | TAATTGTGTAGCTTCATCATCCCATCCATATCCATCGTTCCGGAGTCACCTAGTGCAG | 9220 fluorescence intensity (a.u.)
5 | CGGCGGTGGTCTCCGCCGTTGGATCTGGGCGTTGACTTGTCGGAGTCACCTAGTGCAG | 9160 fluorescence intensity (a.u.)
6 | CTCTCTTTTGTTTTTTTTGGATTTTTAGTGAATATAATGACGGAGTCACCTAGTGCAG | 10000 fluorescence intensity (a.u.)
7 | TGTCAAATCTTTATTTTTCTACTATACTACTATTTCTCTTCGGAGTCACCTAGTGCAG | 8640 fluorescence intensity (a.u.)
8 | CAGAAATGGCAACTAGCCTCGGATTTTTCCCTTTTATGTCCGGAGTCACCTAGTGCAG | 9200 fluorescence intensity (a.u.)
9 | TCGCTCTCGCCCGCCGTCGCCATGCTCGCCCGCTGCCGCTCGGAGTCACCTAGTGCAG | 8410 fluorescence intensity (a.u.)
10 | TCCGACCGTTGCGTCCGCCTCAGGTGCGCGCCCGCTTTTCCGGAGTCACCTAGTGCAG | 8070 fluorescence intensity (a.u.)
11 | AAATATCAGTCCTGTTTTTTTTTACTTTCTTGCTCTATCACGGAGTCACCTAGTGCAG | 11100 fluorescence intensity (a.u.)
12 | GGACACCATGACCACCAGATTCCCATCGAAGCTCCATCCACGGAGTCACCTAGTGCAG | 8130 fluorescence intensity (a.u.)
13 | GAGACTAATTCCGACCTTGACCAAACCAAACCCTACCAAACGGAGTCACCTAGTGCAG | 9200 fluorescence intensity (a.u.)
14 | CGGTTTTTTCCCTTGGTTTTTTTTCGCCAGTTTTTTTTCGCGGAGTCACCTAGTGCAG | 10200 fluorescence intensity (a.u.)
15 | TGGGGTTTTCTTTTTTGGGTTGGGTTGATCTTTTGGGTGGCGGAGTCACCTAGTGCAG | 36600 fluorescence intensity (a.u.)
16 | CTCCGGTTGCTTCACCTTGCAGGGCTCTTTATCTTAACCACGGAGTCACCTAGTGCAG | 8500 fluorescence intensity (a.u.)
17 | CGATCGCGATTTTTTTTTCTTCGCCGGATTTTTTTTTCTCCGGAGTCACCTAGTGCAG | 9090 fluorescence intensity (a.u.)
18 | CCGTTGGGGACACGTGGCACTCTCGCATTCGTCGTTTGACCGGAGTCACCTAGTGCAG | 8780 fluorescence intensity (a.u.)
19 | CTTATATTTTGATGTGTTTCCTTCCATGGTTCGTTACTGTCGGAGTCACCTAGTGCAG | 9830 fluorescence intensity (a.u.)
20 | TTTTTCCCTTGCTCGTCTGCGCCGCCACCTCCTCCACCTTCGGAGTCACCTAGTGCAG | 9520 fluorescence intensity (a.u.)
21 | ATCTTCATTCATGTCTCCAATAAGTTTATTTTCGACTAATCGGAGTCACCTAGTGCAG | 8110 fluorescence intensity (a.u.)

A different layout for some results above:
CGACGCTTCCCATATAATTTTGGCCCGGAACTCCAATTCCCGGAGTCACCTAGTGCAG
  binding signal: 8710 fluorescence intensity (a.u.)
TAATTGTGTAGCTTCATCATCCCATCCATATCCATCGTTCCGGAGTCACCTAGTGCAG
  binding signal: 9220 fluorescence intensity (a.u.)

(listing goes on)

Row | Sequence | binding signal
22 | AGCTAGTGACTTTTGTTGTGTTTTATTCCGTGCTGGTCAGCGGAGTCACCTAGTGCAG | 8870 fluorescence intensity (a.u.)
23 | CACTTCTTTGGTCTGCTCTTCTTGGTATCCTTCTCCTACGCGGAGTCACCTAGTGCAG | 10900 fluorescence intensity (a.u.)
24 | TCGACTATTTAGTTCTCTCTATTTCTTTGTTCATATACACCGGAGTCACCTAGTGCAG | 10000 fluorescence intensity (a.u.)
25 | GCTTTGATTTTTCCCCAAATTTCTTGACCGTTGGTAGGGCCGGAGTCACCTAGTGCAG | 8190 fluorescence intensity (a.u.)
26 | TGCTTCTGTTAGGTTTCTTGGTCCAAGTTTGCCTTTCTCACGGAGTCACCTAGTGCAG | 12800 fluorescence intensity (a.u.)
27 | TCCTCATCTCATCCTAGCTACCTCCTCGTTTGATCGATCGCGGAGTCACCTAGTGCAG | 10000 fluorescence intensity (a.u.)
28 | CACTTACATGCCATATCTACTGTTTTTACAAATGTAATGTCGGAGTCACCTAGTGCAG | 8440 fluorescence intensity (a.u.)
29 | CCTAACCATATTGTCTCTCTTGTCCTTATCACCGACCATACGGAGTCACCTAGTGCAG | 10100 fluorescence intensity (a.u.)
30 | CCCTAATATTTTCATGTCTTGGTCCATATCCTCCATAAACCGGAGTCACCTAGTGCAG | 8790 fluorescence intensity (a.u.)
31 | ATGTTCTTTGCCATGATAATTGGGGTCATGTTTGTACTTTCGGAGTCACCTAGTGCAG | 10900 fluorescence intensity (a.u.)
32 | TACTACTGTACTACTCTCAGTCTCTCGGCTTCTAGACTAGCGGAGTCACCTAGTGCAG | 8600 fluorescence intensity (a.u.)
33 | TCCCTGATTTTTACTGCTTTCCTTCTATTGTTACAAACTCCGGAGTCACCTAGTGCAG | 10900 fluorescence intensity (a.u.)
34 | TATCGAGTCCCTGTAAGTTGTAACACGTGTTTGTTTCTCTCGGAGTCACCTAGTGCAG | 8950 fluorescence intensity (a.u.)
35 | TATCACTCACCTCTGTAACCCTTATTTTGGAAAATCCGCACGGAGTCACCTAGTGCAG | 9000 fluorescence intensity (a.u.)
36 | TAAACACCACGCTACAAATTTCCTTACCTGCTAAACGCAACGGAGTCACCTAGTGCAG | 8370 fluorescence intensity (a.u.)
37 | CTCGCGCTCTCCTCTCCTCGCCGCCTCGCCGCCTCGCATGCGGAGTCACCTAGTGCAG | 8560 fluorescence intensity (a.u.)
38 | TTTTGCCAATTTTTAGCTCATATAGCGATATCGATCTTCTCGGAGTCACCTAGTGCAG | 8180 fluorescence intensity (a.u.)
39 | CACGCCACCACGCTCTCCGTGACAACGAGGCGCCAACCTCCGGAGTCACCTAGTGCAG | 8090 fluorescence intensity (a.u.)
40 | TCATCTCAAACTCACTCGCTCACACATACAAGCGCAGTTACGGAGTCACCTAGTGCAG | 8050 fluorescence intensity (a.u.)
41 | TGCGTAGCTCTATAGTTTTTCAGTCTCGTTAAGCAGTACTCGGAGTCACCTAGTGCAG | 8120 fluorescence intensity (a.u.)
42 | AACAAAAAGCATCCATCCATCCATCCATCCATGGCAGATTCGGAGTCACCTAGTGCAG | 8800 fluorescence intensity (a.u.)
